Not every detail of the peptide structures is certain; ends, links or a residue may be inferred. Ends that are not written are not given here.
Target: T1, TLR8 (Homo sapiens, UniProt Q9NR97)
T1 construct: expressed in transfected cells
T1 sequence (Q9NR97 27-1041): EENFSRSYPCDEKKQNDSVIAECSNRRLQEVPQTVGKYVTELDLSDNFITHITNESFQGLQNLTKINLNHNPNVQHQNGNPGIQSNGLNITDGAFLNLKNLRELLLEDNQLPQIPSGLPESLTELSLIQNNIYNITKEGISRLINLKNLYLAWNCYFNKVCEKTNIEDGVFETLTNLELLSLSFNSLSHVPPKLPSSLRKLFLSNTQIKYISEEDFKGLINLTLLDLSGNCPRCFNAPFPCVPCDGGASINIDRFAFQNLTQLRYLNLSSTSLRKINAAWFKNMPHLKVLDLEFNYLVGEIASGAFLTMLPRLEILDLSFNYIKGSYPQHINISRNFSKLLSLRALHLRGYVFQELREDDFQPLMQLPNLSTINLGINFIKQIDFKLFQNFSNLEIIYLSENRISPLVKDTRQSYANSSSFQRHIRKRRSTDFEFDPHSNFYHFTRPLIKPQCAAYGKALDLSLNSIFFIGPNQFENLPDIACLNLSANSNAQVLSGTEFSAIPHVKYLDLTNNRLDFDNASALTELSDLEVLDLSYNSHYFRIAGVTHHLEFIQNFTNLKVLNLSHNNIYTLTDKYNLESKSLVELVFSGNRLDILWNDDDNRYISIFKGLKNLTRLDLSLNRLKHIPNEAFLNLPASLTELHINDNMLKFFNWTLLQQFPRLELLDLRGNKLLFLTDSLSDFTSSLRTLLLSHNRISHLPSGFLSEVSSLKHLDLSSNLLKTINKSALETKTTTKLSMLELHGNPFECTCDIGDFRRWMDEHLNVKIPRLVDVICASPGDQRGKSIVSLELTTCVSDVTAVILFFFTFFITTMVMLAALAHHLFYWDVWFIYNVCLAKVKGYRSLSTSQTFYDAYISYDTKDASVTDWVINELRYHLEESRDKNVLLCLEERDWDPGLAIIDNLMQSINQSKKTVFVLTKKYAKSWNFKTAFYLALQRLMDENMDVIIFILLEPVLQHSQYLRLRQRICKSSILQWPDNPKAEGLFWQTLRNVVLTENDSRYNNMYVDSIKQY
Assay: CL075-induced NFκB reporter assay in HEK293_TLR8 cells
Assay type: cell-based
Conditions: peptide 1, 5 or 25 μM, 2.5 μg/ml CL075, 6 h
Method: FIG. 12 is a bar chart showing the effect of A467 and A464 on TLR8-induced NFκB activation in HEK293 cells. HEK293_TLR8 cells were transfected with 60 ng NFκB-Luciferase and 20 ng of TK-Renilla reporter genes, as in FIG. 11. A467 (SEQ ID NO. 23) and A464 (SEQ ID NO. 20) were added to the cells at a concentration of 1, 5 or 25 μM the next day and cells were stimulated with 2.5 μg/ml CL075 1 hour after treatment with the peptide. Cells were harvested and assayed for NFκB activation by reporter gene assay 6 hr after stimulation with the agonist. No peptides were added to the control wells (black bars). Data is representative of at least three experiments each performed in triplicate. Data are expressed as mean fold induction±s.d. relative to control levels;
HEK293 cells were transfected using GeneJuice® a proprietary non-toxic transfection reagent. 200 μl/well cells at a density of 1×10^5 cells/ml were seeded the day before transfection. 0.8 μl of GeneJuice was mixed with 9.2 μl of serum-free DMEM (SFM) per transfection and incubated for 5 min at room temperature before adding the appropriate amount of the plasmid DNA. The GeneJuice/SFM/DNA mixture was then incubated at room temperature for 15 min before adding to the cells. […] Luciferase activity was analysed using a luminometer. […]

RNTISGNIYSARRRRRRRRR [Peptide A467]
inhibition of TLR8-dependent NFκB activation: neither A467 (SEQ ID No. 23) nor A464 (SEQ ID No. 20) had any inhibitory effect

— US8722052B2, “Vaccinia virus protein A46 peptide and use thereof” (priority 2008, dated 2014)
